Reference: PubChem BioAssay AID504793 (Drosophila RNAi Screening Center, 2011)
The deposit covers about 23,000 reagents; below is an unselected part of those with a known target gene and a result. In the full data, 62 (0.27%) are marked active. 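Calls come from follow-up tests whose scores are not deposited, so confirmed genes may have low counts here; counts are not normalised per plate.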 Raw values vary from plate to plate and are shown uncorrected. The numbers tell different reagents against one gene apart. Names joined by + are all predicted targets of the reagent.

- Test: 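Whole-genome screen for parts of the DNA damage checkpoint at G2/M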 (primary screen)
- Cell system: Drosophila S2R+ cells
- Reagents: long dsRNA against Drosophila genes, about 0.25 µg dsRNA per well
- Timing: 4 days of dsRNA, then 4 hours of drug before read-out
- Challenge: doxorubicin 0.5 µM for 4 hours to cause double-strand breaks, in cells also given a low, harmless dose of dsRNA against nbs to sensitise the assay
- Detection: 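Mitotic index as the number of phospho-histone H3-positive cells in each well following doxorubicin, given as raw counts without normalisation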
- Direction: mitotic cells: higher = more cells in mitosis, weaker G2 arrest
- Rule for the call: 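a call needs confirmation in secondary tests, with other dsRNAs and a check of mitotic timing without damage, not just a high primary count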
- Calls: active = confirmed in follow-up tests; inactive = not confirmed

CG33981 + fab1 #1 → mitotic cells, replicate 1 = 10; Call = inactive
CG33981 + fab1 #2 → mitotic cells, replicate 1 = 5; Call = inactive
CG11663 → mitotic cells, replicate 1 = 15; Call = inactive
wls #1 → mitotic cells, replicate 1 = 6; Call = inactive
wls #2 → mitotic cells, replicate 1 = 7; Call = inactive
Ppn #1 → mitotic cells, replicate 1 = 8; Call = inactive
Ppn #2 → mitotic cells, replicate 1 = 10; Call = inactive
klg #1 → mitotic cells, replicate 1 = 55; Call = inactive
klg #2 → mitotic cells, replicate 1 = 8; Call = inactive
Trhn → mitotic cells, replicate 1 = 7; Call = inactive
Mtk #1 → mitotic cells, replicate 1 = 7; Call = inactive
Mtk #2 → mitotic cells, replicate 1 = 10; Call = inactive
Whamy #1 → mitotic cells, replicate 1 = 2; Call = inactive
Whamy #2 → mitotic cells, replicate 1 = 14; Call = inactive
CG15580 #1 → mitotic cells, replicate 1 = 3; Call = inactive
CG15580 #2 → mitotic cells, replicate 1 = 7; Call = inactive
eIF3f1 #1 → mitotic cells, replicate 1 = 6; Call = inactive
eIF3f1 #2 → mitotic cells, replicate 1 = 3; Call = inactive
Phae2 → mitotic cells, replicate 1 = 2; Call = inactive

Entries listed so far whose target name begins with K or k:
klg #1 → mitotic cells, replicate 1 = 55; Call = inactive
klg #2 → mitotic cells, replicate 1 = 8; Call = inactive

Continued.
Mp #1 → mitotic cells, replicate 1 = 11; Call = inactive
Mp #2 → mitotic cells, replicate 1 = 6; Call = inactive
Mp #3 → mitotic cells, replicate 1 = 5; Call = inactive
CG32241 #1 → mitotic cells, replicate 1 = 3; mitotic cells, replicate 2 = 2; Call = inactive
CG32241 #2 → mitotic cells, replicate 1 = 14; Call = inactive
CG32241 #3 → mitotic cells, replicate 1 = 8; Call = inactive
rgr #1 → mitotic cells, replicate 1 = 9; Call = inactive
rgr #2 → mitotic cells, replicate 1 = 4; Call = inactive
Enoph → mitotic cells, replicate 1 = 11; Call = inactive
HPS4 → mitotic cells, replicate 1 = 6; Call = inactive
CG33012 #1 → mitotic cells, replicate 1 = 4; Call = inactive
CG33012 #2 → mitotic cells, replicate 1 = 2; Call = inactive
ND2 (retired record) → mitotic cells, replicate 1 = 10; Call = inactive
Csgalnact → mitotic cells, replicate 1 = 6; Call = inactive
pxb #1 → mitotic cells, replicate 1 = 8; Call = inactive
pxb #2 → mitotic cells, replicate 1 = 13; Call = inactive
pxb #3 → mitotic cells, replicate 1 = 10; Call = inactive
pxb #4 → mitotic cells, replicate 1 = 4; Call = inactive
pxb #5 → mitotic cells, replicate 1 = 9; Call = inactive
